Data reported in PubChem BioAssay (EPA / NIEHS).
“And” between values parts separate entries of the source, which are not always exact repeats. Identical values can stand only once. Inconclusive results, whose numbers are uncertain, are shown with a selection of clear calls. For some of these results: Potencies beside an inconclusive call are fits to weak or partial responses and may not hold up. A structure can be active in one record and inactive in another. The source made the active and inactive calls. Rule for the calls: active = hit-call score of the fitted dose curve at least 0.9, where 1 is the maximum; inconclusive = response in the unintended direction; inactive = score below 0.9.

Chains of the proteins cited; added tags and fusions are not shown. Lines headed by an entry give the natural chain unless they say otherwise; changes in a name come on top.
UniProt P37231: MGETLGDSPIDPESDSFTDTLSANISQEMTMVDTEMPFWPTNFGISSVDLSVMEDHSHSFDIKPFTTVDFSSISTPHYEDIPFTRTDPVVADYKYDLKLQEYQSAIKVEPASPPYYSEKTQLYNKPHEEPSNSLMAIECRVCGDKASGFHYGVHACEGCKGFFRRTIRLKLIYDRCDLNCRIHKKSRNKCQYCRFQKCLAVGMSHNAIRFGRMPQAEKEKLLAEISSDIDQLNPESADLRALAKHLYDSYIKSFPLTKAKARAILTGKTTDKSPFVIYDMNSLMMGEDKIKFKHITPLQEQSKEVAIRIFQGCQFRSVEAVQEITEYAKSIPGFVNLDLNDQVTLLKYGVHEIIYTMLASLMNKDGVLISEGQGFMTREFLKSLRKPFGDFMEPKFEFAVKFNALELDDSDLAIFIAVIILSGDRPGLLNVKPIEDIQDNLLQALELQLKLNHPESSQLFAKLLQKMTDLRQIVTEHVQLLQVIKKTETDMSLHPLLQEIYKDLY
UniProt O75469: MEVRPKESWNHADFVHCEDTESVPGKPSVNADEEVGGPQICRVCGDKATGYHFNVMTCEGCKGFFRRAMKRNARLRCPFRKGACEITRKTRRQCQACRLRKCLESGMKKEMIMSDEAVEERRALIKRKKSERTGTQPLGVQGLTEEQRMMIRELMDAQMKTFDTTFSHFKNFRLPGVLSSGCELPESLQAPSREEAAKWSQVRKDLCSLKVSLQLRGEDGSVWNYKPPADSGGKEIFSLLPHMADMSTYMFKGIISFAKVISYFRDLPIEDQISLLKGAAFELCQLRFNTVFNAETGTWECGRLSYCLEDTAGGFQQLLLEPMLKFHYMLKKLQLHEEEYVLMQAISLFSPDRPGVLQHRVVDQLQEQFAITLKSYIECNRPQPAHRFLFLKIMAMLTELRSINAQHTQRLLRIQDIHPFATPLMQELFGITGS
UniProt Q03181: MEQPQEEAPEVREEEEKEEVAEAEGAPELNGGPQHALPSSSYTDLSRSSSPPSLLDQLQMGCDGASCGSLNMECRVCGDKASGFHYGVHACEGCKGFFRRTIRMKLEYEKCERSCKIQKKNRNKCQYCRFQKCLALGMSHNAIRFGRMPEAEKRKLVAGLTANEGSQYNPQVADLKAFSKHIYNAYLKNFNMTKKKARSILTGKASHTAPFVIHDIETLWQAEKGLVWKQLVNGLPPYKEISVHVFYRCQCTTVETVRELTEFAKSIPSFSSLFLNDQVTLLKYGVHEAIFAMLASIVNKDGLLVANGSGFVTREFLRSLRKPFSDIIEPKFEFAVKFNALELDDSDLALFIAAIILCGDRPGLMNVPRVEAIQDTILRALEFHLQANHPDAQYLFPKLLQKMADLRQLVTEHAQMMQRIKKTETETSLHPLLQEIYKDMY
UniProt P21709: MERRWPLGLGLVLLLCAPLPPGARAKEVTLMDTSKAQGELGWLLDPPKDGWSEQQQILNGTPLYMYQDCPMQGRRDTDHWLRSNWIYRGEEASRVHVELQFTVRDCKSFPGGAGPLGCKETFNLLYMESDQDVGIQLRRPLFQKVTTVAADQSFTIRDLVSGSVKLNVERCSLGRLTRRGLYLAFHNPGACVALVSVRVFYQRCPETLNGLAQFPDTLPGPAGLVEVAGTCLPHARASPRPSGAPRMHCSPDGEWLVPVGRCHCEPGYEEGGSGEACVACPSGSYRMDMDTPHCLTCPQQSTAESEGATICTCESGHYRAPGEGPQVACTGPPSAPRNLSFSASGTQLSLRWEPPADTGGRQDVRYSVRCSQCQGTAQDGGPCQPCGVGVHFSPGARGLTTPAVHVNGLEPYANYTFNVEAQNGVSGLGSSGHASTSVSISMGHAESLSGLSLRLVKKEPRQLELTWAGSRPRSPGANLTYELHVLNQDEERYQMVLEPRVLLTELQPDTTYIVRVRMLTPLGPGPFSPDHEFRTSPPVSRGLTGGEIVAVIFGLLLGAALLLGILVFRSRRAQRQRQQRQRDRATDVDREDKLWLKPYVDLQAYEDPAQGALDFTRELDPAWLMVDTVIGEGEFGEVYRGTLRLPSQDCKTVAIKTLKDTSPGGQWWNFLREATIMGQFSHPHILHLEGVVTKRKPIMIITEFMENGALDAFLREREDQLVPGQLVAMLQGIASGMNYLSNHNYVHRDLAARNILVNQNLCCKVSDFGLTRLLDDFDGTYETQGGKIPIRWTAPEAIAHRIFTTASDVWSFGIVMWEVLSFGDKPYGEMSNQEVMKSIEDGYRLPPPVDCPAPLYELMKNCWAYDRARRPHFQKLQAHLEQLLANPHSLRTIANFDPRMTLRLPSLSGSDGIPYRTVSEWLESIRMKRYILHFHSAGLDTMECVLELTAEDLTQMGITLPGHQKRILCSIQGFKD
UniProt P04637, whole entry, looked up: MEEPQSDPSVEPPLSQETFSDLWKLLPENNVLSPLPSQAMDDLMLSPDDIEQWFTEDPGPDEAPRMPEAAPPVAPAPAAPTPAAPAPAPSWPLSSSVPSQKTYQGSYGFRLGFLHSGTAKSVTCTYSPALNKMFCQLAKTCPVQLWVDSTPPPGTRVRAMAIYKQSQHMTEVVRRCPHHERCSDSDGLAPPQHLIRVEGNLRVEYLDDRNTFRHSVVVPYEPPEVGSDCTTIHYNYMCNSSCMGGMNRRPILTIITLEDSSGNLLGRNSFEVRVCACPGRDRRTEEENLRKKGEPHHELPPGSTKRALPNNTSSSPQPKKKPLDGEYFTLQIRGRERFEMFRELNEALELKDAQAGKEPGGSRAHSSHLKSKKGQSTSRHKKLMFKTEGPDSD
UniProt P19793: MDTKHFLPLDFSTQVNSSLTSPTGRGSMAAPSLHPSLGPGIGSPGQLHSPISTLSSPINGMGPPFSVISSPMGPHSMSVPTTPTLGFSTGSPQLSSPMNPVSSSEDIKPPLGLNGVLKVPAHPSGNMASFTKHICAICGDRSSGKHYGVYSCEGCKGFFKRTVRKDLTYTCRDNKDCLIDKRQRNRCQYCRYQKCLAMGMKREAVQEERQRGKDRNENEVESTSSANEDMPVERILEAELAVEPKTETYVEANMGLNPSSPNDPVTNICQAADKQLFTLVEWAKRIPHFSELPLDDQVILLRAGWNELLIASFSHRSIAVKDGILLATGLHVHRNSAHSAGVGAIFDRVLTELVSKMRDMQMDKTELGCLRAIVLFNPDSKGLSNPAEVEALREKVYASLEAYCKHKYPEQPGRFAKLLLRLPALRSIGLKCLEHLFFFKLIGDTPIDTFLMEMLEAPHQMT
UniProt P19785, whole entry, looked up: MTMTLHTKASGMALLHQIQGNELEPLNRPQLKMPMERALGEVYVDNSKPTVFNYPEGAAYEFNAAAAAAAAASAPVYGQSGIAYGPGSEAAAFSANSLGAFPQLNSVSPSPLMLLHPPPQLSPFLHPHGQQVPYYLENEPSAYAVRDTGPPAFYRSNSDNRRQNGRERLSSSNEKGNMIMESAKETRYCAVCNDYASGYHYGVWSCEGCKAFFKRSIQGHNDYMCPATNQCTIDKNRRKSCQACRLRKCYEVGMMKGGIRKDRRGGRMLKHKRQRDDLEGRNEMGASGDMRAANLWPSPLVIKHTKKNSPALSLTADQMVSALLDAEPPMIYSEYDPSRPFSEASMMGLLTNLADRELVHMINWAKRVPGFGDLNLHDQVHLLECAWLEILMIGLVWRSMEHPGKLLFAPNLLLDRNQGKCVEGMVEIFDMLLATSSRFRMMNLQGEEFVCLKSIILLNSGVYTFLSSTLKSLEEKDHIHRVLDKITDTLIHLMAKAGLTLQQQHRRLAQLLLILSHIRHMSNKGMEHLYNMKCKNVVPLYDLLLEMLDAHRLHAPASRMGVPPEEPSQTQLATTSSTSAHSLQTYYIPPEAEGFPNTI
UniProt P11473: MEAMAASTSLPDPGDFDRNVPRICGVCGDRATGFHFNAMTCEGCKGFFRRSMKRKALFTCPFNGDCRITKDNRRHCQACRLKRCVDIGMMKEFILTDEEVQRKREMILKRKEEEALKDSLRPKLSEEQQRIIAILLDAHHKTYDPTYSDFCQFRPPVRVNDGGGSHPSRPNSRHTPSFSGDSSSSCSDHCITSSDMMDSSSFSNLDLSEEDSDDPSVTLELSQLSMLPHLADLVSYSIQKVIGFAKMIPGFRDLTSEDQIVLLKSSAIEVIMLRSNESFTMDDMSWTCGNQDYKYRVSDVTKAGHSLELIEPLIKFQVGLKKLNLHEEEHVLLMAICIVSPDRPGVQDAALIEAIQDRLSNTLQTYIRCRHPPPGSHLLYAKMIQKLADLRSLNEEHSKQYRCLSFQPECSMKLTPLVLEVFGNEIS

Legend:
[1] = target: Peroxisome proliferator-activated receptor gamma (Homo sapiens) (UniProt P37231); test: ATG_PPARg_TRANS: Attagene TRANS-FACTORIAL HepG2 Assay for human Peroxisome Proliferator-activated Receptor-gamma (PPARg) (AID 2283007)
Method in brief: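 Gain-of-signal endpoint relative to DMSO, derived from reporter mRNA levels quantified by RT-PCR and capillary electrophoresis. Cells were HepG2 transiently expressing a chimeric NR-Gal4 construct with GAL4-UAS reporters, exposed to chemicals for 24 h.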

[2] = target: Nuclear receptor subfamily 1 group I member 2 (Homo sapiens) (UniProt O75469); test: ATG_PXR_TRANS: Attagene TRANS-FACTORIAL HepG2 Assay for human Pregnane X Receptor (PXR) (AID 2283008)
Method in brief: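 Trans-factorial format: exogenous NR-Gal4 fusion activity, not endogenous factor, in transfected human HepG2 liver cells. After 24 h dosing, RNA isolated, reverse-transcribed, amplified and resolved by capillary electrophoresis; induction scored versus DMSO.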

[3] = CCTE_Harrill_HTTr_CellCount_MCF7: CCTE's Cell Proliferation Assessment for the High-Throughput Transcriptomics (HTTr) Platform, Harrill Lab (AID 2284012);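 note: count of Hoechst-stained nuclei per well by high-content imaging in MCF-7 cells; cells exposed to compound for six hours; intended direction is loss of nuclei count meaning fewer cells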
Method in brief: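 For this full-screen endpoint, MCF-7 cultures received eight compound dilutions for six hours. Well nuclei counts from Hoechst imaging were analyzed relative to DMSO.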

[4] = ATG_M_06_TRANS: Attagene TRANS-FACTORIAL HepG2 Assay for M06 Transcription Factor (Internal Marker) (AID 2282983); details: HepG2 Attagene TRANS M06 internal marker reporter;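 note: reporter transcript level by RT-PCR then capillary electrophoresis fluorescence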
Method in brief: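 Read-out: fluorescent reporter cDNA fragments resolved by capillary electrophoresis after RT-PCR and HpaI cut. Source cells were HepG2 carrying transfected multi-reporter GAL4 constructs, dosed 24 h. Increase over DMSO control analysed.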

[5] = target: human Peroxisome Proliferator-activated Receptor delta (PPARd), PPARD (gene 5467) (UniProt Q03181); test: ATG_PPARd_TRANS: Attagene TRANS-FACTORIAL HepG2 Assay for human Peroxisome Proliferator-activated Receptor delta (PPARd) (AID 2283002)
Method in brief: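 Transient HepG2 transfection (multiple GAL4-UAS RTUs, chimeric receptor-Gal4); 24 h dosing; total RNA → oligo(dT) RT → PCR → 6-FAM primer extension → HpaI cut → CE. Positive direction vs DMSO.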

[6] = target: human Ephrin type-A Receptor 1 (EphA1), EPHA1 (gene 2041) (UniProt P21709); test: NVS_ENZ_hEphA1: NovaScreen (NVS) Enzymatic Assay for human Ephrin type-A Receptor 1 (EphA1) (AID 2283158);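 note: activity is signal loss versus DMSO meaning EphA1 kinase inhibition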
Method in brief: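 Recombinant kinase, fluorescent substrate, mobility-shift separation, fluorescence read at 1 h. Single-point duplicates at 25 uM; hits (e.g., ≥30% inhibition) run singleton concentration-response, max 50 uM. DMSO = negative control/baseline.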

[7] = ATG_XTT_Cytotoxicity: Cytotoxicity Assessment in the Attagene TRANS-FACTORIAL HepG2 Assay (AID 2283584);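 for AC50: cells exposed to compound for 24 h before reading; active means loss of viability signal versus DMSO baseline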
Method in brief: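 XTT readout of cell number in transfected HepG2 cells, 24 h post-dosing; DMSO serves as negative control and baseline, with activity taken as loss of viability signal.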

[8] = target: Cellular tumor antigen p53 (Homo sapiens) (UniProt P04637); test: TOX21_p53_BLA_p4_ratio: Tox21 HCT-116 p53 Agonism Beta-lactamase Assay, Ratio, Phase 4 (AID 2283601)
Method in brief: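 Signal is the blue/green (460nm/530nm) ratio of cleaved versus uncleaved CCF4-AM substrate, read after 2 h substrate loading. Cells were HCT116 carrying the p53-responsive beta-lactamase reporter, dosed 16 h at 37C, 5% CO2; CellTiter-Glo measured in parallel.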

[9] = ACEA_ER_AUC_viability: ACEA Biosciences xCELLigence Real-Time Cell Analysis on Estrogen Receptor Agonism for Viability (AID 2283782);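 note: hit means loss of impedance signal meaning reduced cell growth or viability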
Method in brief: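 Viability endpoint: reduced impedance area under the curve relative to DMSO, recorded by real-time electrode sensing over ~80 h of continuous exposure. Duplicate plates of T47D in hormone-depleted medium; eight concentrations, 1:4 dilutions, 100 uM maximum.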

[10] = target: Retinoic acid receptor RXR-alpha (Homo sapiens) (UniProt P19793); test: OT_NURR1_NURR1RXRa_1440: Odyssey Thera (OT) 24-hour HEK293T Protein Complementation Assay for Nurr1/retinoid X receptor (RXR) (AID 2283386)
Method in brief: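 Cell-based binding reporter: HEK293T cells, 24 h exposure, fluorescence-detected fragment complementation, DMSO as baseline.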

[11] = ACEA_AR_agonist_AUC_viability: ACEA Biosciences xCELLigence Real-Time Cell Analysis on Androgen Receptor Agonism for Viability (AID 2283775);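 for AC50: viability read 80 hours after compound addition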
Method in brief: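 Viability endpoint from xCELLigence impedance in 22Rv1 prostate cells at 80 h. Eight-point series, 100 uM maximum final.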

[12] = ATG_M_32_TRANS: Attagene TRANS-FACTORIAL HepG2 Assay for M32 Transcription Factor (Internal Marker) (AID 2282984); details: HepG2 Attagene TRANS M32 internal marker reporter;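 for outcome: transcript level of a background control reporter unit measured by RT-PCR and capillary electrophoresis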
Method in brief: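 Cell-based TRANS-format assay in HepG2: exogenous chimeric GAL4 reporter units transiently expressed, compounds applied 24 h. Reporter mRNA detected by RT-PCR plus capillary electrophoresis; this readout is an internal background marker.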

[13] = target: mouse Estrogen Receptor alpha (Era), Esr1 (gene 13982) (UniProt P19785); test: NVS_NR_mERa: NovaScreen (NVS) Nuclear Receptor Binding Assay for mouse Estrogen Receptor alpha (Era) (AID 2283378);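 note: hit means loss of bound radioligand signal relative to DMSO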
Method in brief: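 Filter scintillation counts of bound radioligand, measured 18 h post-dose, gave the readout; decreased signal relative to DMSO controls indicated displacement from mouse Era. Primary screen ran in duplicate at 25 uM; active chemicals were retested across concentrations.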

[14] = target: Retinoic acid receptor RXR-alpha (Homo sapiens) (UniProt P19793); test: OT_NURR1_NURR1RXRa_0480: Odyssey Thera (OT) 8-hour HEK293T Protein Complementation Assay for Nurr1/retinoid X receptor (RXR) (AID 2283385)
Method in brief: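 Gain in fluorescent complementation signal over DMSO, measured 8 hours after chemical dosing of human kidney HEK293T cells, indicated enhanced Nurr1–RXRα association.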

[15] = target: human Vitamin D Receptor (VDR), VDR (gene 7421) (UniProt P11473); test: ATG_VDR_TRANS: Attagene TRANS-FACTORIAL HepG2 Assay for human Vitamin D Receptor (VDR) (AID 2283022)
Method in brief: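 RT-PCR/capillary electrophoresis read-out of reporter mRNA induction in transiently transfected HepG2; 24 h dosing; chimeric NR-Gal4 (TRANS format); gain-of-signal fit against DMSO baseline.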

[16] = CCTE_Deisenroth_AIME_384WELL_CTox_Active: Cytotoxicity Assessment (CTOX) in CCTE's 384-well Estrogen Receptor Transactivation Assay with AIME metabolic competence (metabolism positive), Deisenroth Lab (AID 2284037);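 note: chemicals first conditioned 2 h by alginate-bound induced rat liver S9 before cells; activity means signal loss indicating cell death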
Method in brief: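 Cytotoxicity in VM7Luc4E2 breast cells, 24 hour, measured as protease-substrate fluorescence loss, after 2-hour metabolic conditioning with induced rat hepatic S9 in alginate microspheres. Concentrations 0.002 - 200 uM, 10 points, bidirectional fitting.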

Clc1ccccn1
outcome [4]: inactive
AC50 [5]: inconclusive: 1.98 µM
AC50 [2]: inconclusive: 100 µM
AC50 [6]: active: 9.99 µM
AC50 [7]: inconclusive: 100 µM
AC50 [8]: inconclusive: 46.1 µM
outcome [9]: inactive
outcome [3]: inactive

COc1ccc(CCC(C)=O)cc1
AC50 [5]: inconclusive: 60.4 µM
outcome [9]: inactive

C[C@H]1C[C@H]2[C@@H]3CCC4=CC(=O)C=C[C@]4(C)[C@@]3(F)[C@@H](O)C[C@]2(C)[C@@]1(O)C(=O)COP(=O)(O)O
outcome [12]: inactive
outcome [5]: inactive
outcome [7]: inactive

C[C@]12CC[C@@H]3c4ccc(O)cc4CC[C@H]3[C@@H]1CCC2=O
AC50 [13]: active: 7.03 nM [middle of 4 runs]
AC50 [14]: inconclusive: 0.0992 µM
AC50 [10]: active: 32.1 µM
AC50 [11]: inconclusive: 50 nM and inconclusive: 18.8 nM
outcome [11]: inactive
AC50 [9]: inconclusive: 4.96 nM and inconclusive: 2.43 nM and inconclusive: 1.87 nM

OC[C@H]1O[C@H](O[C@]2(CCl)O[C@H](CCl)[C@@H](O)[C@@H]2O)[C@H](O)[C@@H](O)[C@H]1Cl
outcome [12]: inactive
outcome [15]: inactive
AC50 [8]: inconclusive: 46.3 µM

O=C(CCCN1CCC(O)(c2ccc(Cl)cc2)CC1)c1ccc(F)cc1
AC50 [6]: inconclusive: 25 µM
outcome [14]: inactive
AC50 [10]: active: 80.3 µM
AC50 [11]: active: 63.8 µM
AC50 [16]: inconclusive: 0.000226 µM

C=CC[N+](C)(C)CC=C
outcome [4]: inactive
AC50 [1]: inconclusive: 2.19 µM
outcome [10]: inactive
AC50 [9]: inconclusive: 50 µM

Cc1cc(Br)ccc1NC(=O)CCl
AC50 [13]: inconclusive: 25 µM
AC50 [8]: active: 25.3 µM

CCCCCCCCCCCCN(CCO)CCO
AC50 [13]: inconclusive: 25 µM
AC50 [8]: active: 69.1 µM

CC(=O)O[C@]1(C(C)=O)CC[C@H]2[C@@H]3C=C(C)C4=CC(=O)CC[C@]4(C)[C@H]3CC[C@@]21C
AC50 [13]: inconclusive: 1.55 µM
AC50 [8]: inconclusive: 19.4 µM
outcome [3]: inactive

O=[N+]([O-])c1ccc(ON=Cc2cc(Br)c(O)c(Br)c2)c([N+](=O)[O-])c1
AC50 [13]: inconclusive: 25 µM
AC50 [8]: active: 75.9 µM

CCCCCCCCOCCCN
outcome [13]: inactive

O=C(Nc1cccc(Cl)c1)OCC#CCCl
AC50 [13]: inconclusive: 42.7 µM
AC50 [8]: active: 19.6 µM
AC50 [9]: active: 56.3 µM
